Reference: the supplement of paper PMC10382679
Single values of this set are uncertain.

B1: Rpb7; numbered along this chain (parent)
chain: MFFIKDLSLNITLHPSFFGPRMKQYLKTKLLEEVEGSCTGKFGYILCVLDYDNIDIQRGRILPTDGSAEFNVKYRAVVFKPFKGEVVDGTVVSCSQHGFEVQVGPMKVFVTKHLMPQDLTFNAGSNPPSYQSSEDVITIKSRIRVKIEGCISQVSSIHAIGSIKEDYLGAI

How the values were obtained:
[1] = variants of: B1; test: log2 fold change of mutant abundance, UV-irradiated vs unirradiated; higher = more UV resistant (enriched after UV); conditions: with Saccharomyces cerevisiae rad7Δ rad26Δ; UV dose (J/m2): 10; genetic background: rad7Δ rad26Δ rpb7Δ + plasmid RPB7 library; outgrowth: 10 cell divisions
[2] = variants of: B1; test: NOISeq theta enrichment statistic, UV-irradiated vs unirradiated (dimensionless); higher = more UV resistant (enriched after UV); conditions: with Saccharomyces cerevisiae rad7Δ rad26Δ; UV dose (J/m2): 10; genetic background: rad7Δ rad26Δ rpb7Δ + plasmid RPB7 library; outgrowth: 10 cell divisions

| Variant | log2 fold change of mutant abundance [1] | NOISeq theta enrichment statistic [2] |
| --- | --- | --- |
| S155D | -0.0242 | -0.0154 |
| S155C | 0.0557 | 0.315 |
| V145G | -0.0282 | -0.0358 |
| V145A | -0.143 | -0.253 |
| V145L | -0.0502 | -0.0484 |
| V145D | -0.0989 | -0.131 |
| V145F | 0.582 | 0.735 |
| V145E | 0.0903 | 0.062 |
| V145I | 0.3 | 0.678 |
| V145S | 0.0292 | 0.0222 |
| S152H | -0.822 | -0.395 |
| S152T | -0.333 | -0.395 |
| S152C | 0.212 | 1.01 |
| S152Y | -0.384 | -0.182 |
| S152V | -0.566 | -0.333 |
| S152K | -0.539 | -0.28 |
| S152G | -0.0242 | -0.0765 |
| S152I | -0.0734 | -0.127 |
| S152N | 0.238 | 0.692 |
| S152D | 0.124 | 0.0816 |
| S152R | 0.0445 | 0.206 |
| S152Q | -0.0489 | -0.0327 |
| G149Y | 1.43 | 0.717 |
| G149C | 1.5 | 3.51 |

| Variant | log2 fold change of mutant abundance [1] | NOISeq theta enrichment statistic [2] |
| --- | --- | --- |
| G149D | 2.78 | 3.42 |
| G149V | 1.36 | 1.9 |
| G149R | 1.74 | 2.35 |
| G149A | 1 | 1.47 |
| G149S | 1.39 | 3.02 |
| G149E | 1.6 | 0.927 |
| I151V | -0.0244 | -0.0829 |
| I151N | 0.247 | 0.808 |
| I151L | 0.172 | 0.228 |
| I151T | -0.0199 | -0.0836 |
| I151S | -0.0715 | -0.0879 |
| I151M | 0.345 | 0.449 |
| I151D | 0.409 | 0.186 |
| I151A | -1.16 | -0.554 |
| I151F | -0.531 | -0.913 |
| I151Y | 0.0605 | 0.0415 |
| R144W | 0.166 | 0.137 |
| R144G | 0.0505 | 0.0828 |
| R144I | 0.0855 | 0.139 |
| R144E | -0.117 | -0.0784 |
| R144T | 0.22 | 0.226 |
| R144K | 0.00255 | 0.00498 |
| R144C | -0.221 | -0.161 |
| R144M | 0.911 | 0.38 |

| Variant | log2 fold change of mutant abundance [1] | NOISeq theta enrichment statistic [2] |
| --- | --- | --- |
| R144N | -0.124 | -0.0598 |
| R144S | 0.108 | 0.223 |
| C150G | -0.184 | -0.273 |
| C150V | -0.511 | -0.388 |
| C150Y | -0.605 | -1.11 |
| C150H | 0.633 | 0.356 |
| C150N | 0.0895 | 0.0437 |
| C150R | -0.0975 | -0.266 |
| C150S | -0.0983 | -0.355 |
| C150F | -0.514 | -0.54 |
| C150W | -0.278 | -0.304 |
| C150T | -1.47 | -0.689 |
| C150L | -0.237 | -0.168 |
| K146E | 0.126 | 0.309 |
| K146T | 0.118 | 0.221 |
| K146M | 0.0923 | 0.0413 |
| K146G | 0.583 | 0.358 |
| K146S | 0.64 | 0.354 |
| K146D | 0.684 | 0.4 |
| K146H | 1.68 | 0.747 |
| K146Y | -0.715 | -0.408 |
| K146L | 0.572 | 0.34 |
| K146V | 0.157 | 0.0811 |
| K146N | 0.014 | 0.0418 |

| Variant | log2 fold change of mutant abundance [1] | NOISeq theta enrichment statistic [2] |
| --- | --- | --- |
| K146R | 0.0842 | 0.331 |
| K146Q | 0.25 | 0.344 |
| K146I | 0.0829 | 0.192 |
| Q153H | 0.236 | 1.23 |
| Q153L | -0.637 | -1.49 |
| Q153E | 0.064 | 0.0794 |
| Q153S | 0.279 | 0.229 |
| Q153I | -1.1 | -0.561 |
| Q153Y | -0.957 | -0.449 |
| Q153K | -0.256 | -0.497 |
| Q153N | 0.443 | 0.196 |
| Q153P | -0.361 | -0.413 |
| Q153R | -0.345 | -1.16 |
| V154E | -0.92 | -1.42 |
| V154I | 0.449 | 0.265 |
| V154S | 0.0392 | 0.0277 |
| V154L | 0.171 | 0.42 |
| V154R | -0.216 | -0.143 |
| V154G | -0.751 | -0.95 |
| V154A | -0.594 | -1.7 |
| V154M | -0.0295 | -0.0744 |
| I143T | 0.269 | 0.542 |
| I143M | 0.145 | 0.251 |
| I143L | 0.0204 | 0.0303 |

Single values from the entries so far:
K146S | log2 fold change of mutant abundance [1]: 0.64
Q153L | NOISeq theta enrichment statistic [2]: -1.49
R144S | NOISeq theta enrichment statistic [2]: 0.223
V154A | log2 fold change of mutant abundance [1]: -0.594
C150Y | NOISeq theta enrichment statistic [2]: -1.11
R144N | NOISeq theta enrichment statistic [2]: -0.0598
K146R | log2 fold change of mutant abundance [1]: 0.0842

Next part:

| Variant | log2 fold change of mutant abundance [1] | NOISeq theta enrichment statistic [2] |
| --- | --- | --- |
| I143S | 0.0033 | 0.00661 |
| I143V | -0.0155 | -0.0673 |
| I143N | -0.0997 | -0.153 |
| I143R | 0.296 | 0.207 |
| I143K | -0.407 | -0.181 |
| I147V | 0.0657 | 0.163 |
| I147N | -0.103 | -0.151 |
| I147T | -0.245 | -0.36 |
| I147L | 0.155 | 0.185 |
| I147M | -0.151 | -0.2 |
| I147S | -0.101 | -0.147 |
| I147F | 0.0329 | 0.0747 |
| I147R | -0.118 | -0.0832 |
| E148Y | -0.965 | -0.551 |
| E148Q | -0.565 | -0.475 |
| E148A | 0.249 | 0.387 |
| E148V | -0.259 | -0.984 |
| E148G | -0.0856 | -0.188 |
| E148D | 0.236 | 0.599 |
| E148K | -0.177 | -0.256 |
